Reference: the supplement of paper PMC8728848
Some of the results follow.

Key:
Assay in all cases: glycan array binding signal (z-score within array); higher = stronger binding
Details in all cases: glycan notation: IUPAC condensed, linker removed; mutation: Y54A
[1] = biological target: Fuc(a1-2)Gal
Method in brief: (§1)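 The binding signal is a Z-score computed within each array. Data were drawn from 3228 arrays in the Consortium for Functional Glycomics database, restricted to those with a known protein sequence. Scores were averaged over arrays of the same protein sequence at different concentrations or buffers, and over linkers, and negative values can be taken as non-binding.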

[2] = biological target: Fuc(a1-2)Gal(b1-3)GalNAc
Method in brief: as §1

[3] = biological target: Fuc(a1-2)Gal(b1-3)GalNAc(a1-3)[Fuc(a1-2)]Gal(b1-4)Glc
Method in brief: as §1

[4] = biological target: Fuc(a1-2)Gal(b1-3)GalNAc(a1-3)[Fuc(a1-2)]Gal(b1-4)GlcNAc
Method in brief: as §1

[5] = biological target: Fuc(a1-2)Gal(b1-3)GalNAc(b1-3)Gal
Method in brief: as §1

[6] = biological target: Fuc(a1-2)Gal(b1-3)GalNAc(b1-3)Gal(a1-4)Gal(b1-4)Glc
Method in brief: as §1

[7] = biological target: Fuc(a1-2)Gal(b1-3)GalNAc(b1-4)[Neu5Ac(a2-3)]Gal(b1-4)Glc
Method in brief: as §1

[8] = biological target: Fuc(a1-2)Gal(b1-3)GlcNAc
Method in brief: as §1

[9] = biological target: Fuc(a1-2)Gal(b1-3)GlcNAc(b1-2)Man(a1-3)[Fuc(a1-2)Gal(b1-3)GlcNAc(b1-2)Man(a1-6)]Man(b1-4)GlcNAc(b1-4)GlcNAc
Method in brief: as §1

[10] = biological target: Fuc(a1-2)Gal(b1-3)GlcNAc(b1-2)Man(a1-3)[Fuc(a1-2)Gal(b1-3)GlcNAc(b1-2)Man(a1-6)]Man(b1-4)GlcNAc(b1-4)[Fuc(a1-6)]GlcNAc
Method in brief: as §1

[11] = biological target: Fuc(a1-2)Gal(b1-3)GlcNAc(b1-3)Gal(b1-4)Glc
Method in brief: as §1

[12] = biological target: Fuc(a1-2)Gal(b1-3)GlcNAc(b1-3)GalNAc
Method in brief: as §1

[13] = biological target: Fuc(a1-2)Gal(b1-3)GlcNAc(b1-3)[Fuc(a1-2)Gal(b1-3)GlcNAc(b1-6)]GalNAc
Method in brief: as §1

[14] = biological target: Fuc(a1-2)Gal(b1-3)GlcNAc(b1-3)[Gal(b1-4)GlcNAc(b1-6)]Gal(b1-4)Glc
Method in brief: as §1

[15] = biological target: Fuc(a1-2)Gal(b1-3)GlcNAc(b1-3)[Neu5Ac(a2-6)Gal(b1-4)GlcNAc(b1-6)]Gal(b1-4)Glc
Method in brief: as §1

[16] = biological target: Fuc(a1-2)Gal(b1-3)GlcNAc6S
Method in brief: as §1

[17] = biological target: Fuc(a1-2)Gal(b1-3)[Fuc(a1-4)]GlcNAc
Method in brief: as §1

[18] = biological target: Fuc(a1-2)Gal(b1-3)[Fuc(a1-4)]GlcNAc(b1-2)Man(a1-3)[Fuc(a1-2)Gal(b1-3)[Fuc(a1-4)]GlcNAc(b1-2)Man(a1-3)]Man(b1-4)GlcNAc(b1-4)GlcNAc
Method in brief: as §1

[19] = biological target: Fuc(a1-2)Gal(b1-3)[Fuc(a1-4)]GlcNAc(b1-2)Man(a1-3)[Fuc(a1-2)Gal(b1-3)[Fuc(a1-4)]GlcNAc(b1-2)Man(a1-6)]Man(b1-4)GlcNAc(b1-4)[Fuc(a1-6)]GlcNAc(b1-4)[Fuc(a1-6)]GlcNAc
Method in brief: as §1

[20] = biological target: Fuc(a1-2)Gal(b1-3)[Fuc(a1-4)]GlcNAc(b1-3)[Fuc(a1-3)[Gal(b1-4)]GlcNAc(b1-6)]Gal(b1-4)Glc
Method in brief: as §1

[21] = biological target: Fuc(a1-2)Gal(b1-3)[Fuc(a1-4)]GlcNAc(b1-3)[Gal(b1-4)GlcNAc(b1-6)]Gal(b1-4)Glc
Method in brief: as §1

[22] = biological target: Fuc(a1-2)Gal(b1-4)Fuc(a1-3)]GlcNAc(b1-2)Man(a1-3)[Fuc(a1-2)Gal(b1-4)[Fuc(a1-3)]GlcNAc(b1-2)Man(a1-6)]Man(b1-4)GlcNAc(b1-4)GlcNAc
Method in brief: as §1

B1: CBP21 (Serratia marcescens), O83009 (protein)
chain: MNKTSRTLLSLGLLSAAMFGVSQQANAHGYVESPASRAYQCKLQLNTQCGSVQAEPQSVEGLKGFPQAGPADGHIASADKSTFFELDQQTPTRWNKLNLKTGPNSFTWKLTARHSTTSWRYFITKPNWDASQPLTRASFDLTPFCQFNDGGAIPAAQVTHQCNIPADRSGSHVILAVWDIADTANAFYQAIDVNLSK
B1 was tested, and the “glycan array binding signal (z-score)” value [1] was 0.247, the “glycan array binding signal (z-score)” value [2] was 0.188 and the “glycan array binding signal (z-score)” value [3] was 1.32. The “glycan array binding signal (z-score)” value [4] was -0.488, the “glycan array binding signal (z-score)” value [5] was -0.538 and the “glycan array binding signal (z-score)” value [6] was 0.046. For the same binder, the “glycan array binding signal (z-score)” value [7] was 0.437, the “glycan array binding signal (z-score)” value [8] was -0.702 and the “glycan array binding signal (z-score)” value [9] was -0.854. The “glycan array binding signal (z-score)” value [10] was -0.985, the “glycan array binding signal (z-score)” value [11] was -0.307 and the “glycan array binding signal (z-score)” value [12] was 0.028. The “glycan array binding signal (z-score)” value [13] was -0.514, the “glycan array binding signal (z-score)” value [14] was -0.46 and the “glycan array binding signal (z-score)” value [15] was -0.286. For the same binder, the “glycan array binding signal (z-score)” value [16] was -0.608, the “glycan array binding signal (z-score)” value [17] was -0.275 and the “glycan array binding signal (z-score)” value [18] was 0.767. For the same binder, the “glycan array binding signal (z-score)” value [19] was 0.129, the “glycan array binding signal (z-score)” value [20] was -1.36 and the “glycan array binding signal (z-score)” value [21] was -0.05. For the same binder, the “glycan array binding signal (z-score)” value [22] was -0.103.
